From patent US4560692A, “4-Piperidino-2-phenylquinolines” (Hoffmann-La Roche Inc., priority 1984, dated 1985) come the findings set out here.

The target in the assay is ^3 H-Diazepam binding, rat brain cortical fragments. Description: ^3 H-Diazepam binding assay. The conditions noted are these: standard drugs, inhibition of ^3 H-Diazepam binding by 50%. Here is the method:
Rat brain cortical fragments are prepared and the binding procedures performed as described by Mohler and Okada (Life Sciences, 20, 2101, 1977) except that Tris buffer is substituted for Krebs buffer. Drugs are assayed in triplicate. Radioactivity is measured by liquid scintillation counting.

Consider `CN1C(=O)CN=C(c2ccccc2)c2cc(Cl)ccc21` [Diazepam, reference compound], for which the IC50 – broadly, the concentration needed to halve the response being measured – came out at 5 nM.
